{"source": "patent US11685741B2", "about": "“Fluorescent probes” (University of Massachusetts, priority 2017, dated 2023)", "system": "HT-29 cells", "assay": "Ratiometric determination of labile Fe2+ concentration in HT-29 cells", "type": "cell-based, human", "experimental": "For concentration determination, human primary fibroblast ws1 cells were grown at 37° C. in a humid atmosphere of 5% CO2 atmosphere in eagle's minimum essential medium (EMEM, ATCC) supplemented with 10% fetal bovine serum (FBS, ATCC). Cultures were divided into 1:2 every 48 h to an approximate cell density of 1.21 million cells/ml and used for experiments after 24 h. In addition, the human colon adenocarcinoma cell line HT29 (ATCC) was routinely grown in Dulbecco's modified Eagle's medium (DMEM) supplemented with 10% fetal bovine serum (FBS, ATCC).\nA Zeiss LSM 710 laser-scanning confocal microscope system was used for cell imaging experiments in collaboration with a person in the lab. 40× oil-immersion objective lens were used to perform all the experiments. For imaging with the NIRh-Fret sensor, excitation wavelength of the laser was 633 nm and emissions were collected over the range 650-850 nm. For images with MitoTracker Green FM, LysoTracker Red DND-100, excitation wavelengths recommended by the manufacturer were 488 nm for MitoTracker, 543 nm for LysoTracker. Emissions were integrated at 492-535 nm (MitoTracker), 550-625 nm (LysoTracker), respectively.\nTo determine the concentration of labile Fe^2+, the ratiometric Fe^2+ sensor, NIRh-Fret, has been developed. The two-bands absorption/fluorescence nature of the ratiometric sensor enables the tracing of the cellular distribution of the sensor itself as well as detecting the labile Fe^2+ pools. When Fe^2+ was added to NIRh-Fret solution, a decrease in intensity at 540 nm of the fluorescence and an increase in intensity at 735 nm were observed (FIGS. 70A-B).\nTo determine the cellular concentration of Fe^2+, an in-vitro calibration curve was obtained by titrating the sensor, NIRh-Fret (20 μM), with different concentrations of Fe^2+ and a calibration curve was obtained by plotting [Fe^2+] versus fluorescent ratio (F735/F540) (FIG. 71). Ratiometric imaging was performed with 2 different cell lines, HT29 cells and WS1 cells and with iron replete and depleting conditions.\nFitting the ratiometric imaging data to the calibration curve gives Fe^2+ concentration for the first time in ws1 cells, with a value of ˜8±1 μM determined in the mitochondria of untreated cells, 12±1 μM in the mitochondria of Fe (II) treated cells, and 5±1 μM in the mitochondria of the Fe(II)-chelator Bpy treated cells, 71 μM determined in the lysosomes of untreated cells, 10±1 μM in the lysosomes of Fe (II) treated cells, and 5±1 μM in the lysosomes of Bpy treated cells. Cytosol Fe^2+ levels are low which were not readily observed by the imaging pictures. […] By fitting the ratios to the calibration curve, Fe^2+ concentration was determined to be below 1 μM in the cytosol of untreated cells, 3-4 μM in the cytosol of Fe (II) treated cells, and 0 μM in the cytosol of Bpy treated cells. Also Fe^2+ concentrations in HT-29 cells determined to be ˜11±1 μM in the mitochondria of untreated cells, 15±1 μM in mitochondria of Fe (II)-treated cells, and 9±1 μM in mitochondria of Bpy-treated cells and 9±1 μM determined in the lysosomes of untreated cells, 13±1 μM in the lysosomes of Fe (II) treated cells, and 6±1 μM in the lysosomes of Bpy treated cells, below 1 μM determined in the cytosol of untreated cells, 4-5 μM in the cytosol of Fe (II) treated cells, and 0 μM in the cytosol of Bpy treated cells and the results are summarized in Table 2.", "note": "Where “and” joins values, the source holds several entries; their conditions need not be identical. Identical values can stand only once.", "data": [{"smiles": "CCN(CC)c1ccc2c(c1)OC1=C(CCC/C1=C\\C=C1\\N(C)c3ccccc3C1(C)C)C21c2ccccc2C(=O)N1/N=C\\C=C\\c1ccc(N(C)C)cc1", "note": "(centres unmarked) [NIRh-Fret, (E)-6′-(diethylamino)-2-(((1Z,2E)-3-(4-(dimethylamino)phenyl)allylidene)amino)-4′-(2-((E)-1,3,3-trimethylindolin-2-ylidene)ethylidene)-1′,2′,3′,4′-tetrahydrospiro[isoindoline-1,9′-xanthen]-3-one]", "values": [{"measurement": "Fe(II) concentration in cytosol, Bpy treated cells", "value": 0, "unit": "µM"}, {"measurement": "Fe(II) concentration in cytosol, Fe(II) treated cells", "value": "4 to 5", "unit": "µM"}, {"measurement": "Fe(II) concentration in lysosome, Bpy treated cells", "value": "6 ± 1", "unit": "µM"}, {"measurement": "Fe(II) concentration in lysosome, Fe(II) treated cells", "value": "13 ± 1", "unit": "µM"}, {"measurement": "Fe(II) concentration in lysosome, Untreated cells", "value": "~9 ± 1 µM and 9 ± 1 µM"}, {"measurement": "Fe(II) concentration in mitochondria, Bpy treated cells", "value": "9 ± 1", "unit": "µM"}, {"measurement": "Fe(II) concentration in mitochondria, Fe(II) treated cells", "value": "15 ± 1", "unit": "µM"}, {"measurement": "Fe(II) concentration in mitochondria, Untreated cells", "setting": "ratio F735/F540 fitted to calibration curve", "value": "~11 ± 1 µM and 11 ± 1 µM"}]}]}
